PubChem BioAssay AID1347075 (National Center for Advancing Translational Sciences (NCATS), 2019)
Among all 400,000 compounds or so, about 5,500 (1.4%) were called active. Inconclusive results, whose numbers are uncertain, are shown with a selection of clear calls. Calls come from the whole dose curve; as a rule, active = well fitted cell-killing curve with a large enough effect; inconclusive = small, poorly fitted or top-dose-only effect, or effect the other way; inactive = flat fitted curve, though single readings scatter. Potencies beside an inconclusive call are fits to weak or partial responses and may not hold up.

Assay: qHTS assay for MDR1-selective chemotherapeutics: Primary screen using the parental adenocarcinoma cell KB-3-1; note: nearly all actives have a fitted effect of over 60% in size
Settings: KB-3-1 viability, CellTiter-Glo ATP luminescence, 72 h; activity change, negative = cytotoxic: at 46.1 µM (top of the series)
Outline: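 Screening of KB-3-1 cells (DMEM, 10% FBS, phenol-red free) ran from lowest to highest compound concentration; after 72 h at 37 °C viability was read luminescently and curves fitted.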
% is set by controls: 0 for no effect and ±100 for the full control effect; potency is the fitted concentration of half-maximal effect.

SMILES	Potency	activity change, negative = cytotoxic
CCc1nnc(NC(=O)CSc2nc(-c3ccccc3)c(-c3ccccc3)o2)s1	active: 5.17 µM	
CCc1cc2c3c(c1)C1(C(=O)N3C(C)(C)C=C2C)C(C#N)=C(N)Oc2[nH]c(=O)[nH]c(=O)c21 (centres undefined)	inconclusive: 29.1 µM [cytotoxic, single point]	
CCC(CC)COC(=O)C(C#N)c1nc2ccccc2nc1N1CCN(CC)CC1 (centres undefined)	inconclusive: 20.6 µM [cytotoxic, single point]	
O=C(NCc1ccco1)C1Cc2c(-c3cccc(F)c3)ccnc2O1 (centres undefined)	active: 1.16 µM	
CCC1=[N+](CC(=O)c2ccc(Br)cc2)CCn2c(C)ccc21	inconclusive: 29.1 µM [cytotoxic, single point]	
COc1ccccc1N1CCN(c2ncnc3sc(C)c(-c4ccccc4)c23)CC1	inconclusive: 18.4 µM [cytotoxic, single point]	
C[C@H](CO)N1C[C@H](C)[C@H](CN(C)S(=O)(=O)c2ccc(Cl)cc2)OCc2ccccc2-c2c(n(C)c3ccccc23)C1=O	inconclusive: 0.206 µM [cytotoxic, full curve]	
CCCCCc1cc(=O)oc2c(C(CCN3CCCC(C)C3)c3ccc(N(C)C)cc3)c(OC)cc(OC)c12 (centres undefined)	inactive	
COc1ccc(OC)c(Nc2nc(-c3c(C)nc4ncccn34)cs2)c1	inconclusive: 20.6 µM [cytotoxic, single point]	
Cc1cc(-c2ccc(Cl)cc2)c2cnn(C(C)C)c2n1	inconclusive: 29.1 µM [cytotoxic, single point]	
O=c1[nH]nc(Cc2ncc(C(F)(F)F)cc2Cl)c2ccccc12	inconclusive: 29.1 µM [cytotoxic, single point]	
c1ccc(CN(Cc2ccccc2)C(c2ccnc3ccccc23)c2nnnn2-c2ccc3c(c2)OCCO3)cc1 (centres undefined)	inconclusive: 29.1 µM [cytotoxic, single point]	
COc1ccccc1C=NN=C(NN=Cc1ccccc1OC)NN=Cc1ccccc1OC	inconclusive: 29.1 µM [cytotoxic, single point]	
CCOC(=O)c1c(C)[nH]c(C2=NNC(=Nc3ccccc3OC)SC2)c1C	active: 18.4 µM	
CCOC(=O)c1cccc(NC(=O)c2ccc3nc(Cc4ccccc4)oc3c2)c1	inconclusive: 29.1 µM [cytotoxic, single point]	
COc1ccc(C2=NN(c3ccc(C(=O)O)cc3)C(c3ccc(OC)c(OC)c3)C2)cc1 (centres undefined)		inconclusive: 0%
CC(C)N1C(=O)S/C(=C/c2ccc(Sc3nc4ccccc4[nH]3)o2)C1=O	inconclusive: 18.4 µM [cytotoxic, single point]	
COc1cc2c(cc1OC)C(=O)N1[C@H]3c4cc(Cl)ccc4OC[C@@H]3[C@H](c3ccccc3)[C@]1(C)C(=O)N2	inconclusive: 29.1 µM [cytotoxic, single point]	
COc1ccc(C2/C=C\CN(S(=O)(=O)c3ccc(C)cc3)CC(=O)N2Cc2cccc(F)c2)cc1 (centres undefined)	inactive	
N#CC1=C(N)Oc2cc(N)ccc2C1c1cccnc1 (centres undefined)	inconclusive: 23.1 µM [cytotoxic, single point]	
Cc1ccc(NS(=O)(=O)c2ccc3c(c2)CC(C)N3C(=O)C2CCC2)cc1Cl (centres undefined)	inconclusive: 20.6 µM [cytotoxic, single point]	
COc1ccc2c3c(cccc13)C(=O)N(O)C2=O	inconclusive: 29.1 µM [cytotoxic, single point]	

SMILES	Potency	activity change, negative = cytotoxic
CCOCCCNC(=O)c1c[nH]c2cc(OC)ccc2c1=O	inconclusive: 25.9 µM [rising, single point]	
COc1ccc(CNCCCC(=O)Nc2c(Cl)ccc(C)c2Cl)cc1OC	inactive	
NS(=O)(=O)c1ccc(NN=C2CCN(Cc3ccccc3)CC2)c([N+](=O)[O-])c1	inactive	
CC(=O)c1ccc(Nc2cc(C)nc3c(C)cc(C)cc23)cc1	inconclusive: 3.66 µM [cytotoxic, full curve, poor fit]	
CCOC(=O)c1c(CSCc2ccccc2)oc2ccc(O)c(CN(C)C)c12	inconclusive: 20.6 µM [cytotoxic, partial curve, poor fit]	
O=C(NC1C2CC3CC(C2)CC1C3)c1ccc(N2CCNCC2)c([N+](=O)[O-])c1 (centres undefined)	inconclusive: 29.1 µM [cytotoxic, single point]	
COc1ccc(-c2cn(Cc3ccc4ccccc4c3)nn2)cc1	inactive	
COc1ccc(OC)c(C2=NO[C@@H]3C(=O)N(c4cc(Cl)ccc4OC)C(=O)[C@H]23)c1	inactive	
CCCCCCCSc1nnc(-c2ccccc2N)c(=O)[nH]1		inconclusive: -5.32%
O=C(CNS(=O)(=O)c1ccc([N+](=O)[O-])cc1)N/N=C/c1ccc(O)cc1O	inconclusive: 29.1 µM [cytotoxic, single point]	
CCCCOc1ccc(CN2C(=O)C(=O)c3cc(Br)cc(C)c32)cc1OC	inconclusive: 29.1 µM [cytotoxic, single point]	
COc1ccc(S(=O)(=O)N(C)C[C@H]2Oc3ncc(Br)cc3C(=O)N([C@@H](C)CO)C[C@@H]2C)cc1	inconclusive: 2.91 µM [cytotoxic, partial curve, poor fit]	
Nc1c(-c2ccc(C(F)(F)F)cc2)nc2ncccn12	inactive	
CCCCOc1ccc(CN=C(N)N)cc1Cl	inconclusive: 18.4 µM [cytotoxic, single point]	
O=C(c1ccc2c(c1)OCO2)N1CCN(c2cccc(C(F)(F)F)c2)CC1	active: 13 µM	
CC1CN(Cc2csc(-c3ccc(Cl)cc3)n2)CC(C)O1 (centres undefined)	inconclusive: 32.6 µM [cytotoxic, single point]	
OC(COc1c(F)cc(Br)cc1F)CN1CCN(c2ccc(F)cc2)CC1 (centres undefined)	inconclusive: 29.1 µM [cytotoxic, single point]	
COc1ccccc1CCNC(=O)c1ccc2c(c1)c(C)c(C)n2Cc1ccc(Cl)cc1	inactive	
Cc1cc(NC(=O)CS(=O)(=O)c2cn(Cc3cccc(C(F)(F)F)c3)c3ccccc23)no1	inactive	
CN(C(=O)C1Cc2c(-c3ccc(Cl)cc3)ccnc2O1)c1ccccc1 (centres undefined)	inactive	
O=C(NO)c1ccc(C(=O)N(C2CCCCC2)C2CCCCC2)cc1	inconclusive: 23.1 µM [cytotoxic, single point]	
COC(=O)c1cc(NC(=O)CC2SC(=Nc3ccccc3)N(CCc3c[nH]c4ccccc34)C2=O)cc(C(=O)OC)c1 (centres undefined)	inconclusive: 14.6 µM [cytotoxic, single point]	

SMILES	Potency	activity change, negative = cytotoxic
CN1CCN(C2Cc3cc(Cl)ccc3Sc3cc(F)ccc32)CC1 (centres undefined)	active: 18.4 µM	
COc1ccc(CCN2CC(C(=O)NCC(c3ccccc3)N(C)C)CC2=O)cc1OC (centres undefined)	inconclusive: 0.0046 µM [rising, full curve, poor fit]	
Cc1ccc(C)c(CNc2ccc(S(=O)(=O)N3CCCCC3)cc2)c1	inconclusive: 23.1 µM [cytotoxic, partial curve, poor fit]	
CC(NC(=O)c1ccccc1NC(=O)CN1CCc2ccccc2C1)c1ccccc1 (centres undefined)	inconclusive: 29.1 µM [cytotoxic, single point]	
O=c1c(-c2ccc(Cl)cc2)c(C(F)(F)F)oc2c(CN3CCCCC3)c(O)ccc12	inconclusive: 9.2 µM [rising, partial curve, poor fit]	
COc1ccc(/C=N/NC(=O)c2cccc([N+](=O)[O-])c2)cc1OC(=O)c1ccc(C)cc1	inconclusive: 29.1 µM [cytotoxic, single point]	
CC(=O)Nc1sc(C)c(C)c1C(=O)OCC(=O)Nc1ccccc1C(F)(F)F	inconclusive: 29.1 µM [rising, partial curve, poor fit]	
CCc1ccc(N2C(=O)CSC23C(=O)N(Cc2ccc(C)cc2)c2ccccc23)cc1 (centres undefined)	inconclusive: 25.9 µM [cytotoxic, single point]	
COc1cc(-c2cc(=O)c3c(C)cc(O)cc3o2)cc(OC)c1OC	inconclusive: 4.11 µM [rising, full curve, poor fit]	
Brc1ccc(CN2CCN(Cc3c[nH]c4ccccc34)CC2)cc1	inconclusive: 29.1 µM [cytotoxic, single point]	
O=[N+]([O-])c1ccc(/C=N/NC(=S)Nc2ccc(Cl)cc2Cl)s1	inconclusive: 16.4 µM [cytotoxic, single point]	
Cc1onc(-c2ccccc2)c1C(=O)OCCOc1cccc(Cl)c1	inconclusive: 5.8 µM [cytotoxic, full curve, poor fit]	
CCCCCCCCCC[n+]1ccc(/C=C/c2c(C)[nH]c3ccccc23)cc1	active: 1.3 µM	
Cn1c(=O)c2c(nc(CN3CCN(Cc4ccccc4)CC3)n2Cc2ccc(Cl)cc2)n(C)c1=O	inconclusive: 23.1 µM [cytotoxic, single point]	
CCCOc1ccc(CSCCNC(=S)Nc2ccccc2)cc1	inactive	
Cc1ccc(C2=CC(c3ccccc3F)n3c(nc4ccccc43)N2)cc1C (centres undefined)	inconclusive: 16.4 µM [cytotoxic, single point]	
O=C(C[N+]12CCCc3cccc(c31)CCC2)c1ccccc1	inconclusive: 29.1 µM [cytotoxic, single point]	
CN=c1sc2c(n1C)C(=O)c1ccccc1C2=O	inconclusive: 23.1 µM [cytotoxic, single point]	
Cn1cnc([N+](=O)[O-])c1Sc1nc(N)nc2c1ncn2C1OC(CO)C(O)C1O (centres undefined)	inconclusive: 0.651 µM [cytotoxic, full curve, poor fit]	
CC(CNC(=O)c1ccc(Br)o1)NC(=O)c1ccc(Br)o1 (centres undefined)	inconclusive: 29.1 µM [cytotoxic, single point]	

Already shown: entries from further up.
SMILES	Potency	activity change, negative = cytotoxic
COc1cc(-c2cc(=O)c3c(C)cc(O)cc3o2)cc(OC)c1OC	inconclusive: 4.11 µM [rising, full curve, poor fit]	
Brc1ccc(CN2CCN(Cc3c[nH]c4ccccc34)CC2)cc1	inconclusive: 29.1 µM [cytotoxic, single point]	
O=[N+]([O-])c1ccc(/C=N/NC(=S)Nc2ccc(Cl)cc2Cl)s1	inconclusive: 16.4 µM [cytotoxic, single point]	
Cc1onc(-c2ccccc2)c1C(=O)OCCOc1cccc(Cl)c1	inconclusive: 5.8 µM [cytotoxic, full curve, poor fit]	
CCCCCCCCCC[n+]1ccc(/C=C/c2c(C)[nH]c3ccccc23)cc1	active: 1.3 µM	
